Laboratory results published in paper PMC5296679.

Assays:
[1] = target: FT2α (BiFC fusion) (B. distachyon); assay: split reporter; competition BiFC in N. benthamiana leaves: FT2β plasmid co-infiltrated with the BiFC constructs, GUS in place of FT2β as control; fluorescent nuclei and fluorescence intensity
[2] = target: FT2α (BiFC fusion) (B. distachyon); assay: split reporter; BiFC with split YFP fusions expressed transiently in N. benthamiana leaves; confocal imaging 3 days after infiltration
[3] = target: FT2β (BiFC fusion) (B. distachyon); assay: as above
[4] = target: FT2α (two-hybrid fusion) (B. distachyon); assay: two-hybrid; yeast three-hybrid: bait and prey co-transformed with or without the competitor FT2β into AH109; liquid β-Gal assay with CPRG
[5] = target: FT2β (two-hybrid fusion) (B. distachyon); assay: two-hybrid; Matchmaker GAL4 system, yeast AH109, pGBKT7 and pGADT7 fusions; growth on SD/-Leu/-Trp/-His/-Ade plus 2.5 mM 3-aminotriazole
[6] = target: FT2α (two-hybrid fusion) (B. distachyon); assay: as above

binding [1]: binds | binding [2]: binds | binding [3]: no binding
B1: GF14b (BiFC fusion) (protein, UniProt I1I791 1-256)
chain: MSREDNVYMAKLAEQAERYEEMVEYMEKVAKTVDVEELTVEERNLLSVAYKNVIGARRASWRIVSSIEQKEEGRGNEDHVTLIKDYRGKIEAELSKICDGILKLLDSHLVPMSTAAESKVFYLKMKGDYHRYLAEFKASAERKEAAESTMVAYKAAQDIALAELAPTHPIRLGLALNFSVFYYEILNSPDKACNLAKQAFDEAISELDTLGEESYKDSTLIMQLLRDNLTLWTSDLTEEGAEEGKEASKGEAGEGQ

binding [4]: binds | binding [5]: no binding | binding [6]: binds
B2: GF14b (two-hybrid fusion) (protein, UniProt I1I791 1-256)
chain: B1 chain

Results are given in words; binding and its absence hold for the method and conditions named. For part of these data: A result given as binding can be weak or reduced; the word gives no strength. Sequences can lack the tags named with a protein. For part of these data: In cells and extracts the contact can be indirect. Each block holds one binder with its values, some of them ahead of it.
